Reference: publication PMC6470638
These are yes or no findings as the source states them, for the method shown. In cells and extracts the contact can be indirect. Some results given as binding are weak or reduced against the parent protein; the word gives no strength.

The chains behind the UniProt entries cited, without tags or fusion partners. Residues count along the entry.
UniProt P08721, residues 17-317: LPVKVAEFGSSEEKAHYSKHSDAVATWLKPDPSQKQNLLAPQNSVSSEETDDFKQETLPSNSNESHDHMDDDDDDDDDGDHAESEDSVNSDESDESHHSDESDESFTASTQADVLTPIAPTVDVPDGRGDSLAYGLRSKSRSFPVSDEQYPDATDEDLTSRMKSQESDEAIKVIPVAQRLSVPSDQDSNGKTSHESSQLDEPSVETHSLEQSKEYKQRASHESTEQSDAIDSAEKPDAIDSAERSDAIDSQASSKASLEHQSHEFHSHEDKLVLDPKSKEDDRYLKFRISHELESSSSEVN
UniProt P63095: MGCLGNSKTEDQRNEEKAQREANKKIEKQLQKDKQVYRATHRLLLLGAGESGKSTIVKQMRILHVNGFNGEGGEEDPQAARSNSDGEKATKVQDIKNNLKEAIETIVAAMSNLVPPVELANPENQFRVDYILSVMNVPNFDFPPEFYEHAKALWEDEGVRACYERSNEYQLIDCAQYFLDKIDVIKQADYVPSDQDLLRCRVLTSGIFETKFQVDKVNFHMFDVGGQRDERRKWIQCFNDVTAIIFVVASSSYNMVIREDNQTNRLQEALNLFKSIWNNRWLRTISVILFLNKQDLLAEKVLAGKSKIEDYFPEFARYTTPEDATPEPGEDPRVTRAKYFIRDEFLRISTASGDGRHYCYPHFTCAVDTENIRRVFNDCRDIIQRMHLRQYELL

Target: Osteopontin (rat (endogenous in H9c2)) (UniProt P08721)
Assay: co-IP; OPN immunoprecipitated overnight from extracts of native WT H9c2 cells (20 mM Tris pH 7.4, 137 mM NaCl, 1% Nonidet P-40, 20% glycerol) with mouse anti-OPN antibody on Protein A/G-Sepharose beads; immunoblot for Gαs/olf; cells treated with vehicle or 10 µM salbutamol; IgG IP as negative control

binding: binds weakly
Substance: Gαs/olf protein subunit (from UniProt P63095 1-394)
